Only a part is listed here, and it is no random draw. Calls are pooled over several reports, among them a noisy single-well screen. The list shows a part of the results.
How the values were obtained:
Details in all cases: stereoisomer not certain
OR10C1 (Homo sapiens) = target: T1, OR10C1 (Homo sapiens) (UniProt Q96KK4)
T1 sequence (whole entry): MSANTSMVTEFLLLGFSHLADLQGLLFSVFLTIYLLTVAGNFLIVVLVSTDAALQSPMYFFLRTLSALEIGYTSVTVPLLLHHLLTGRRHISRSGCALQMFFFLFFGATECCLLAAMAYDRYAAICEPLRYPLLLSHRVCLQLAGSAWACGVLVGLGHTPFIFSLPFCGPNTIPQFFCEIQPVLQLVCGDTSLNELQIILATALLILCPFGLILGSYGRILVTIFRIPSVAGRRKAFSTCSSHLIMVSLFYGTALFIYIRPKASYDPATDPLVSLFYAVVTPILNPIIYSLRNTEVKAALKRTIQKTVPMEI
Method in brief: (§1)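 Transient luciferase assays in mammalian cell lines were common, though methods varied by source. The values come from published papers and their supplementary material, with extra details from the original authors when needed. Responsive refers to a measured signal the original authors judged statistically different from baseline, and non-responsive (inactive) to the remainder.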

OR10G6 (Homo sapiens) = target: T2, OR10G6 (Homo sapiens) (UniProt Q8NH81)
T2 sequence (whole entry): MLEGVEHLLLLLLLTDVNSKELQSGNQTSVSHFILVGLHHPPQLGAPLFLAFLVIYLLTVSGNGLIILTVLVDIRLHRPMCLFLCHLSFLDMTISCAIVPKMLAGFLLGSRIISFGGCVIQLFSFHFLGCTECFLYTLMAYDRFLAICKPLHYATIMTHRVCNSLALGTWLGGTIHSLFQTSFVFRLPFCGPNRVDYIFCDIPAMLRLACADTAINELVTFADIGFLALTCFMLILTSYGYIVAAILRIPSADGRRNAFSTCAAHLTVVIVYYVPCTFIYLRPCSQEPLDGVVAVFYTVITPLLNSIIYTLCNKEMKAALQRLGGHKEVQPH
Method in brief: as §1

OR10G7 (Homo sapiens) = target: T3, OR10G7 (Homo sapiens) (UniProt Q8NGN6)
T3 sequence (whole entry): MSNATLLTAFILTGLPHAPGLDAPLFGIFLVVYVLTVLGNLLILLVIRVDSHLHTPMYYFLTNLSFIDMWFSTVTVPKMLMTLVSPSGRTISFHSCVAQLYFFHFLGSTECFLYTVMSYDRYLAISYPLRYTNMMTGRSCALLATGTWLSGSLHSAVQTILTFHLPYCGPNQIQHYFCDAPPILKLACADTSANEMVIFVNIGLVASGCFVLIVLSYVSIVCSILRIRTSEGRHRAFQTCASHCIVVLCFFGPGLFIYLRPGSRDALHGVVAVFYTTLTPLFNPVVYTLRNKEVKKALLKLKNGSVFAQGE
Method in brief: as §1

OR10G8 (Homo sapiens) = target: T4, OR10G8 (Homo sapiens) (UniProt Q8NGN5)
T4 sequence (whole entry): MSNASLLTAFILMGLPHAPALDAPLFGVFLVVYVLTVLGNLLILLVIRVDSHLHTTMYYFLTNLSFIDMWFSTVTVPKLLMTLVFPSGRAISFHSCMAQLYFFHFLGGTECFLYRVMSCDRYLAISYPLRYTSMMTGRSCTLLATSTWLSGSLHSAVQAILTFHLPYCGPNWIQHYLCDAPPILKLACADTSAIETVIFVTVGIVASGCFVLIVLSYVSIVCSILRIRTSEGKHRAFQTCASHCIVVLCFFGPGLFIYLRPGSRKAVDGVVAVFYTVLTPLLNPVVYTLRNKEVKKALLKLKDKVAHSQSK
Method in brief: as §1

OR10H1 (Homo sapiens) = target: T5, OR10H1 (Homo sapiens) (UniProt Q9Y4A9)
T5 sequence (whole entry): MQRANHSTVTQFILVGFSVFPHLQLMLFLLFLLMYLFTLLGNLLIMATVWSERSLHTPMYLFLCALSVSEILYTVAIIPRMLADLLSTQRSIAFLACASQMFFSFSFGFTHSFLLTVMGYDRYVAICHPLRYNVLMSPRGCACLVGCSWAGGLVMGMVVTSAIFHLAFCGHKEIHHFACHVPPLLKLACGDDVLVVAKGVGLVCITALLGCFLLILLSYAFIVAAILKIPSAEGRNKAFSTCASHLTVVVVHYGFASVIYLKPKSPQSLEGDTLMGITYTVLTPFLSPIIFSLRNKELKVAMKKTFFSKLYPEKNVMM
Method in brief: as §1

OR10H3 (Homo sapiens) = target: T6, OR10H3 (Homo sapiens) (UniProt O60404)
T6 sequence (whole entry): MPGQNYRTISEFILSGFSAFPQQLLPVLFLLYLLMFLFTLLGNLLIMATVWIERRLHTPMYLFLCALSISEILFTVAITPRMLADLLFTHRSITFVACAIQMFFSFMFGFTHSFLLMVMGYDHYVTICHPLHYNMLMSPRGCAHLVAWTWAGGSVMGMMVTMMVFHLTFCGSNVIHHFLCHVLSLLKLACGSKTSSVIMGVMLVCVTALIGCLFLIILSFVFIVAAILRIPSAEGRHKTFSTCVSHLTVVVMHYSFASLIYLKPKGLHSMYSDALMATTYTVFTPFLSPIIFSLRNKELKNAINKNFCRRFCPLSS
Method in brief: as §1

OR10H4 (Homo sapiens) = target: T7, OR10H4 (Homo sapiens) (UniProt Q8NGA5)
T7 sequence (whole entry): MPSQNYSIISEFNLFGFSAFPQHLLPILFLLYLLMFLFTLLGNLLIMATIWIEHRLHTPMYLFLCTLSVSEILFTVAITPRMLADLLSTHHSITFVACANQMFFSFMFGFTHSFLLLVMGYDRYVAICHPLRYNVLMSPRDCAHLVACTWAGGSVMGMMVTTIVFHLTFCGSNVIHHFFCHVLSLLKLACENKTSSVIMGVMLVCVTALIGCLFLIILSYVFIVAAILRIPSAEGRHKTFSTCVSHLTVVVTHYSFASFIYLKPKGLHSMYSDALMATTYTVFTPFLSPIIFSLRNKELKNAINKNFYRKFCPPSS
Method in brief: as §1

OR10J5 (Homo sapiens) = target: T8, OR10J5 (Homo sapiens) (UniProt Q8NHC4)
T8 sequence (whole entry): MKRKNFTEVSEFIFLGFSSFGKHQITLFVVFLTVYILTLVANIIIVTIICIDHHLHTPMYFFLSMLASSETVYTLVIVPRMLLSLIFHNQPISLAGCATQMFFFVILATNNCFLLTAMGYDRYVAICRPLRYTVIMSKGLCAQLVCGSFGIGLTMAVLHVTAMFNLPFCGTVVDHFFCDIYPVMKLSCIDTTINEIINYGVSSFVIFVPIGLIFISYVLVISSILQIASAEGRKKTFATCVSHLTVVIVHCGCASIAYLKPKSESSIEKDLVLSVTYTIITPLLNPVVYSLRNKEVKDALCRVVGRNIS
Method in brief: as §1

OR10K1 (Homo sapiens) = target: T9, OR10K1 (Homo sapiens) (UniProt Q8NGX5)
T9 sequence (whole entry): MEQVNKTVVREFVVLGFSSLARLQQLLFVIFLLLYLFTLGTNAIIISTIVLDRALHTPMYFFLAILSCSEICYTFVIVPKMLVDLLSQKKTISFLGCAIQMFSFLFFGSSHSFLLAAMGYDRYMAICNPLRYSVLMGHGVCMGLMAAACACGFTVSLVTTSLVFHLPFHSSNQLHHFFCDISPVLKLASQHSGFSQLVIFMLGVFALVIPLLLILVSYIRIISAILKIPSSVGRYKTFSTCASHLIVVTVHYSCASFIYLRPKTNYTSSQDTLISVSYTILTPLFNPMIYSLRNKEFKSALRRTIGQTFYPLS
Method in brief: as §1

OR10K2 (Homo sapiens) = target: T10, OR10K2 (Homo sapiens) (UniProt Q6IF99)
T10 sequence (whole entry): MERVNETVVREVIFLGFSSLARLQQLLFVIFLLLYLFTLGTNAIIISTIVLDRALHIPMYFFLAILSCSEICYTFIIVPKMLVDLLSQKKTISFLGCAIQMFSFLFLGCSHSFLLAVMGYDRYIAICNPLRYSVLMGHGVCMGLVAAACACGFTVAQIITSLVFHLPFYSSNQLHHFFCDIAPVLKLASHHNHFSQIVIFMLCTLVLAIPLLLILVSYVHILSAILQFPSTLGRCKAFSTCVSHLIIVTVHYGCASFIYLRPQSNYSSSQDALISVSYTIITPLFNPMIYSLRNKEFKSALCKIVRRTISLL
Method in brief: as §1

Measured: odorant receptor agonist call

CCCCOC(C)=O
inactive: all assays above
